B1: truncated human DYK-tagged M1AP L433* (c.1297C>T, c.1298T>A p.Leu433Ter) (domain or fragment, UniProt Q8TC57-1 1-432)
chain: MHPGRTTGKGPSTHTQIDQQPPRLLIVHIALPSWADICTNLCEALQNFFSLACSLMGPSRMSLFSLYMVQDQHECILPFVQVKGNFARLQTCISELRMLQREGCFRSQGASLRLAVEDGLQQFKQYSRHVTTRAALTYTSLEITILTSQPGKEVVKQLEEGLKDTDLARVRRFQVVEVTKGILEHVDSASPVEDTSNDESSILGTDIDLQTIDNDIVSMEIFFKAWLHNSGTDQEQIHLLLSSQCFSNISRPRDNPMCLKCDLQERLLCPSLLAGTADGSLRMDDPKGDFITLYQMASQSSASHYKLQVIKALKSSGLCESLTYGLPFILRPTSCWQLDWDELETNQQHFHALCHSLLKREWLLLAKGEPPGPGHSQRIPASTFYVIMPSHSLTLLVKAVATRELMLPSTFPLLPEDPHDDSLKNVESMLDS
B2: truncated human DYK-tagged M1AP Q108* (c.322C>T p.Gln108Ter) (domain or fragment, UniProt Q8TC57-1 1-107)
chain: MHPGRTTGKGPSTHTQIDQQPPRLLIVHIALPSWADICTNLCEALQNFFSLACSLMGPSRMSLFSLYMVQDQHECILPFVQVKGNFARLQTCISELRMLQREGCFRS
B3: truncated human DYK-tagged M1AP C335* (c.1005T>A p.Cys335Ter) (domain or fragment, UniProt Q8TC57-1 1-334)
chain: MHPGRTTGKGPSTHTQIDQQPPRLLIVHIALPSWADICTNLCEALQNFFSLACSLMGPSRMSLFSLYMVQDQHECILPFVQVKGNFARLQTCISELRMLQREGCFRSQGASLRLAVEDGLQQFKQYSRHVTTRAALTYTSLEITILTSQPGKEVVKQLEEGLKDTDLARVRRFQVVEVTKGILEHVDSASPVEDTSNDESSILGTDIDLQTIDNDIVSMEIFFKAWLHNSGTDQEQIHLLLSSQCFSNISRPRDNPMCLKCDLQERLLCPSLLAGTADGSLRMDDPKGDFITLYQMASQSSASHYKLQVIKALKSSGLCESLTYGLPFILRPTS
B4: human DYK-tagged M1AP (meiosis 1-associated protein), full-length wild type (protein, UniProt Q8TC57-1 1-530)
chain: MHPGRTTGKGPSTHTQIDQQPPRLLIVHIALPSWADICTNLCEALQNFFSLACSLMGPSRMSLFSLYMVQDQHECILPFVQVKGNFARLQTCISELRMLQREGCFRSQGASLRLAVEDGLQQFKQYSRHVTTRAALTYTSLEITILTSQPGKEVVKQLEEGLKDTDLARVRRFQVVEVTKGILEHVDSASPVEDTSNDESSILGTDIDLQTIDNDIVSMEIFFKAWLHNSGTDQEQIHLLLSSQCFSNISRPRDNPMCLKCDLQERLLCPSLLAGTADGSLRMDDPKGDFITLYQMASQSSASHYKLQVIKALKSSGLCESLTYGLPFILRPTSCWQLDWDELETNQQHFHALCHSLLKREWLLLAKGEPPGPGHSQRIPASTFYVIMPSHSLTLLVKAVATRELMLPSTFPLLPEDPHDDSLKNVESMLDSLELEPTYNPLHVQSHLYSHLSSIYAKPQGRLHPHWESRAPRKHPCKTGQLQTNRARATVAPLPMTPVPGRASKMPAASKSSSDAFFLPSEWEKDPSRP

No constants are given. Whether binding was seen depends on the method and setting. In cells and extracts the contact can be indirect. A result given as binding can be weak or reduced; the word gives no strength. Where a sequence is shown, tags or fusion partners need not be part of it.

The test addresses human HA-tagged TEX11, full-length wild type (human). The test is described as follows: co-IP; co-transfected HEK293T lysates (25 mM Tris-HCl pH 7.4, 150 mM NaCl, 10 mM EDTA, 1% NP-40, 5% glycerol); magnetic anti-HA tag beads hold HA-SHOC1 or HA-TEX11, 30 min at RT; DYK-M1AP detected by Western blot.
On to B1, for which the binding entry is “no binding”.

For B2, the binding result was “no binding”.

Regarding B3, the binding entry is “no binding”.

For the molecule B4, the binding result was “binds”.

These data come from article PMC12162868.
